42 sequences from paper PMC7819943, “Rice protein-binding microarrays: a tool to detect cis-acting elements near promoter regions in rice” can be followed below.

The chains behind the UniProt entries cited, without tags or fusion partners.
UniProt Q0JBA9, entry or part of it: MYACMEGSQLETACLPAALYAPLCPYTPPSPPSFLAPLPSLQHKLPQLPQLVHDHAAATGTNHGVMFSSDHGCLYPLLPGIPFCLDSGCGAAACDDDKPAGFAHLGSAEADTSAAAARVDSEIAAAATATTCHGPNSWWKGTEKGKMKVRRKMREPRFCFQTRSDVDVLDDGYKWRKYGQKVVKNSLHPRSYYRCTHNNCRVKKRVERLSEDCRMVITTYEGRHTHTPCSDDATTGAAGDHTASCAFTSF

The list shows a part of the results.

The target of the assay is OsWRKY34 (Oryza sativa, UniProt Q0JBA9 1-250). Kind of assay: protein-binding microarray (RPBM); PBS, 2% BSA, 51.3 ng/ul salmon testes DNA, 50 uM zinc acetate, 200 nM TF, 25 C, 1 h; high values mean tight binding. The following applies: protein: recombinant; tags: N-terminal polyhistidine and DsRed monomer fusion (pET32a); label: CyDye5-dUTP incorporated in the synthesized complementary strand; 3' TTTTT single-stranded linker to array surface; dsDNA, one strand shown. The method in brief: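 The binding signal is fluorescence intensity per feature, in arbitrary units, read on an Axon 4000B scanner. Polyhistidine- and DsRed-tagged transcription factors (N-terminal fusions) from E. coli BL21-CodonPlus were purified on Ni–NTA and applied at 200 nM for 1 h at 25 °C to a double-stranded, BSA-blocked custom Agilent array in buffer with 50 µM zinc acetate.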
Take “TAGGTGAGGGCGGTGCGCTTGTCGACGGGGTTGAAGGGGACGGAGTCACCTAGTGCAG”: the binding signal is 10700 fluorescence intensity (a.u.).

For the sequence “GCCTCTTATCCCTTTCTCTCTTCTTCCGCCGCCGCGTCCTCGGAGTCACCTAGTGCAG”, the binding signal was 12500 fluorescence intensity (a.u.).

Regarding “TTATTCTTTTTCTTGTTATTGTTTCGTATCGGCCATTCTCCGGAGTCACCTAGTGCAG”, the binding signal was 9500 fluorescence intensity (a.u.).

In the case of “GCTCTTCCACCTTTCACTCTTCCCCACTGCCCACCACTGTCGGAGTCACCTAGTGCAG”, the binding signal is 8360 fluorescence intensity (a.u.).

“ACACCCAACCTCCGGCCGGCCGGTTCGTCCTCCCTGTAGTCGGAGTCACCTAGTGCAG”: the binding signal was 8650 fluorescence intensity (a.u.).

For “ACATGCATGCTGTTAGTGGTGGGATCTTTCAGGGGCTTTACGGAGTCACCTAGTGCAG”, the binding signal was 11700 fluorescence intensity (a.u.).

For “GTGTGTGTTTTTTTTTGCTGATTGGATTTCCACGTCGACGCGGAGTCACCTAGTGCAG”, the binding signal was 12000 fluorescence intensity (a.u.).

Turning to “CCCCACCCACCTCCTTGTAAGTTGCAACCTCCCGCCTCACCGGAGTCACCTAGTGCAG”, the binding signal is 8330 fluorescence intensity (a.u.).

As for “TGCTATATATTAGTTTTGGATATACATTTCTGGCGTAGTTCGGAGTCACCTAGTGCAG”, the binding signal was 8430 fluorescence intensity (a.u.).

On to “TAATTCATGGTTGGTTTTTAATTATATTTCCCTCCTTAAACGGAGTCACCTAGTGCAG”, for which the binding signal is 9580 fluorescence intensity (a.u.).

With “AGCCGCGCCAAGTGCTTTCCGATTGATTATTGCCGCGAATCGGAGTCACCTAGTGCAG”, the binding signal was 9850 fluorescence intensity (a.u.).

Take “TAGTTTTGTCCCAGTCCCAGCACCAGCTCACCACTTGCTACGGAGTCACCTAGTGCAG”: the binding signal was 8690 fluorescence intensity (a.u.).

“AGCTAGGCACCGTTCTCAACAGAGTTATACTAAACGGATCCGGAGTCACCTAGTGCAG”: the binding signal is 8580 fluorescence intensity (a.u.).

For “TGGTCGTCGGAGTTGGTTTCTTTGTGTTTCTTCTTTAGCGCGGAGTCACCTAGTGCAG”, the binding signal is 9280 fluorescence intensity (a.u.).

With “TCTATTACCTCGATCTGTTCTAGTGAAATCTCATTAGACACGGAGTCACCTAGTGCAG”, the binding signal is 9220 fluorescence intensity (a.u.).

With “TATCCTCTCGTTTTGTGCATGTCACCTAAATAGTTATAAACGGAGTCACCTAGTGCAG”, the binding signal was 8110 fluorescence intensity (a.u.).

With “CATCCCTGAATTTATCTACACGGTCGAGATTTTTTTTATACGGAGTCACCTAGTGCAG”, the binding signal was 8290 fluorescence intensity (a.u.).

On to “CTCCTTCTCCTGCATGCTGCTGCCCTTGCAGGTCTTTTTTCGGAGTCACCTAGTGCAG”, for which the binding signal was 8270 fluorescence intensity (a.u.).

Turning to “TTTCTTGCTGTTCCTACGCCCAATTCGTCCTGATCTGGTTCGGAGTCACCTAGTGCAG”, the binding signal was 11700 fluorescence intensity (a.u.).

“GCTCTCTCTATCTTTTTTTTTGAGAACTCTCTCTCTCTCTCGGAGTCACCTAGTGCAG”: the binding signal was 8170 fluorescence intensity (a.u.).

For “GCACCTTTCAAATTCATCTGATTTATGCATTCTTCTGTAACGGAGTCACCTAGTGCAG”, the binding signal was 8790 fluorescence intensity (a.u.).

On to “TACTCCCTCCGTTTTTTAATAGATGACGCCGTTGACTTTTCGGAGTCACCTAGTGCAG”, for which the binding signal was 16100 fluorescence intensity (a.u.).

Take “AACTTTTGTCATTCTTCATTTGTCATTTCACATGGATCTACGGAGTCACCTAGTGCAG”: the binding signal was 8560 fluorescence intensity (a.u.).

Regarding “TCAGGACATTCTTCTCCATCTTCTCTACTACAGTACTATACGGAGTCACCTAGTGCAG”, the binding signal was 9500 fluorescence intensity (a.u.).

“GCCCCATCCTACTACTACTCCTACACCCGTCTACTCCACTCGGAGTCACCTAGTGCAG”: the binding signal is 12800 fluorescence intensity (a.u.).

Regarding “ACTGCCATGTCCATTTCTTGTCCTTCATTGTACTACTGCTCGGAGTCACCTAGTGCAG”, the binding signal is 15400 fluorescence intensity (a.u.).

With “ATAACTACTATATGTGGTGCACTAATTCCTCTTTAATTTCCGGAGTCACCTAGTGCAG”, the binding signal is 9430 fluorescence intensity (a.u.).

For “AACCGCTGATCTGGCTTGTGGTATGTGTTTGTGCTCCTCTCGGAGTCACCTAGTGCAG”, the binding signal is 10200 fluorescence intensity (a.u.).

For “GGCACGGCGGGGTGGGAGCTCGGGCGCGAGCCGGTCACCTCGGAGTCACCTAGTGCAG”, the binding signal was 8470 fluorescence intensity (a.u.).

“TCCACCTACTGGGTCTTACATTCTTCATACTTCATTCATCCGGAGTCACCTAGTGCAG”: the binding signal was 10400 fluorescence intensity (a.u.).

Take “TTTTTGCCCCATTCTTGCAGCTTTCTTGCCCATCAAACTGCGGAGTCACCTAGTGCAG”: the binding signal is 8940 fluorescence intensity (a.u.).

As to “TTTGTTGTACTAAGAGGGTCAGGTTGGTTTTTTTAAAGATCGGAGTCACCTAGTGCAG”, the binding signal is 8300 fluorescence intensity (a.u.).

For the sequence “ACATCAACACACCATCACTCGCACAAAACACACTAATAAACGGAGTCACCTAGTGCAG”, the binding signal is 8440 fluorescence intensity (a.u.).

In the case of “TGAAAAACCGGGGCCCCTTATCCTCGAACCAGGCGCCCTACGGAGTCACCTAGTGCAG”, the binding signal is 8710 fluorescence intensity (a.u.).

“CGTTTTTTAATAGATGACGCCATTGACTTTTTCTCACATACGGAGTCACCTAGTGCAG”: the binding signal was 11000 fluorescence intensity (a.u.).

Turning to “GTTTGATTTGGTGAGGCGGGCGGTGTGCGCGTGGTGGTCTCGGAGTCACCTAGTGCAG”, the binding signal was 8680 fluorescence intensity (a.u.).

Consider “CGGCCTCCTCATCCTCACTGCACAAACGTTTTCTCTCCTCCGGAGTCACCTAGTGCAG”, for which the binding signal was 9640 fluorescence intensity (a.u.).

As to “GAAAACTAGCTTTGTCATCATTTCCGCTTCGTTCCGGCTGCGGAGTCACCTAGTGCAG”, the binding signal is 8050 fluorescence intensity (a.u.).

Turning to “CATGCATGTTTTACATCTAGTGTGATTGTCTTAATCTTATCGGAGTCACCTAGTGCAG”, the binding signal was 8950 fluorescence intensity (a.u.).

As for “TTTGGTGCCCGGCTCCTAATACCTCGCAAGTATCATCTAACGGAGTCACCTAGTGCAG”, the binding signal was 8080 fluorescence intensity (a.u.).

On to “GGACGGAGGAGGAGGAGGAGGTGGGCGTGGAGATTGGTAGCGGAGTCACCTAGTGCAG”, for which the binding signal is 8400 fluorescence intensity (a.u.).

For the sequence “GTACATATCCTTGTCGGCGAACCAATGCATTTCCATAGCCCGGAGTCACCTAGTGCAG”, the binding signal was 10300 fluorescence intensity (a.u.).
